Like-named read-outs stand apart in the source and are kept apart here. Results are given in words; binding and its absence hold for the method and conditions named. For some of these results: In cells and extracts the contact can be indirect. Some results given as binding are weak or reduced against the parent protein; the word gives no strength. Values belong to the molecule of their own block, whether it stands above or below them.
Assays:
[1] = target: T1, ecdysteroid receptor (EcR) (UniProt P34021); experiment: co-IP; co-immunoprecipitation of EcR and Usp with transport proteins in vertebrate cell lines that do not contain endogenous EcR and Usp; EcR and Usp expressed alone or together
T1 sequence: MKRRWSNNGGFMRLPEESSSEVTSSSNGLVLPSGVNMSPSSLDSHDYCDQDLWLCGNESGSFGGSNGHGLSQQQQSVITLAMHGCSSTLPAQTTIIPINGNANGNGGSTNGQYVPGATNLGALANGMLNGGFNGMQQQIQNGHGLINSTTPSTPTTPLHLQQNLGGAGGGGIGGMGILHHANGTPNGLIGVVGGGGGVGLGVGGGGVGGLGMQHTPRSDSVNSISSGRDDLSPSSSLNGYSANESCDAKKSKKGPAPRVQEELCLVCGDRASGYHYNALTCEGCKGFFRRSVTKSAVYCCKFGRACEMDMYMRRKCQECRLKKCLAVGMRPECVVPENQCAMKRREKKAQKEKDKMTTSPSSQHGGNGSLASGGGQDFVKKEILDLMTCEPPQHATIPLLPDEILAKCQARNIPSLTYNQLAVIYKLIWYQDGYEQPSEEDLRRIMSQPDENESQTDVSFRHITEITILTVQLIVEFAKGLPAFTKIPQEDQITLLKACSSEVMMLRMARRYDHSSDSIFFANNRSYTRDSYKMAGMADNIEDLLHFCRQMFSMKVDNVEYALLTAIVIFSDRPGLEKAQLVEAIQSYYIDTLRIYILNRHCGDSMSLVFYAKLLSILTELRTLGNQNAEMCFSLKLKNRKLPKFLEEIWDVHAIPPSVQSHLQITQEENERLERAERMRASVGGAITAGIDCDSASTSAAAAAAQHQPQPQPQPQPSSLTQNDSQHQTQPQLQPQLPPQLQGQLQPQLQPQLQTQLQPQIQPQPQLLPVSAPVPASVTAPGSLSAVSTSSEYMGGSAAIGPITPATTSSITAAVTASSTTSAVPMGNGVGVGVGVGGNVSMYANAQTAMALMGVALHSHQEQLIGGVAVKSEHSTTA

Chains of the proteins cited; added tags and fusions are not shown.
UniProt O14980: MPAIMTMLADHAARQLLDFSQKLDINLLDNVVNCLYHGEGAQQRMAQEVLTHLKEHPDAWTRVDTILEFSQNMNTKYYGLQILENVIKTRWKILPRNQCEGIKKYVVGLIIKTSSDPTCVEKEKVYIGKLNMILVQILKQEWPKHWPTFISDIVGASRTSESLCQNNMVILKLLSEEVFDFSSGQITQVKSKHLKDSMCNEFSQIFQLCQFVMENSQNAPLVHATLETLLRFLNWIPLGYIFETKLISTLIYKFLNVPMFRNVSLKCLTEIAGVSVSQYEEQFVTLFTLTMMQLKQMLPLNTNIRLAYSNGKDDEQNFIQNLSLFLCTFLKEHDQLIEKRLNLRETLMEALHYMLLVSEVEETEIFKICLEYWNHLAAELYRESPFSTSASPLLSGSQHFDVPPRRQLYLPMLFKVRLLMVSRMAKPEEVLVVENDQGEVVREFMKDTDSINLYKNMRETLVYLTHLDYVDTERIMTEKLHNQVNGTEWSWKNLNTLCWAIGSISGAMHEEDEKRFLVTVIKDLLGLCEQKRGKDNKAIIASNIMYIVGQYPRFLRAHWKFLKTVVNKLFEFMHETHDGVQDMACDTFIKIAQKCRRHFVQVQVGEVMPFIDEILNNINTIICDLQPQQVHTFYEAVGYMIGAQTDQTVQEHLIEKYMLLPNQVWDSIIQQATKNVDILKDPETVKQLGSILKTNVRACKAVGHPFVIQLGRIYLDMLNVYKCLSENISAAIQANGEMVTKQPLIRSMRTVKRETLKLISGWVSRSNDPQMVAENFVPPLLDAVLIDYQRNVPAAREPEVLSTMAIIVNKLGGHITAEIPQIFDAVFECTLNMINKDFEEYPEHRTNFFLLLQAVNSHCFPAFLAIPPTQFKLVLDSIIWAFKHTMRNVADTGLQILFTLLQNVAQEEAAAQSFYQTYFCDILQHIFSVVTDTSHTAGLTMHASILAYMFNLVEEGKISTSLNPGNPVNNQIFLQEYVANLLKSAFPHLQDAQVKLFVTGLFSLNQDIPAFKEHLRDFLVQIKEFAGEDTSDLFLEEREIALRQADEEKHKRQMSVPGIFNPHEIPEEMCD

Ultraspiracle (Usp) = target: T2, Ultraspiracle (Usp) (UniProt P20153); experiment: as above
T2 sequence: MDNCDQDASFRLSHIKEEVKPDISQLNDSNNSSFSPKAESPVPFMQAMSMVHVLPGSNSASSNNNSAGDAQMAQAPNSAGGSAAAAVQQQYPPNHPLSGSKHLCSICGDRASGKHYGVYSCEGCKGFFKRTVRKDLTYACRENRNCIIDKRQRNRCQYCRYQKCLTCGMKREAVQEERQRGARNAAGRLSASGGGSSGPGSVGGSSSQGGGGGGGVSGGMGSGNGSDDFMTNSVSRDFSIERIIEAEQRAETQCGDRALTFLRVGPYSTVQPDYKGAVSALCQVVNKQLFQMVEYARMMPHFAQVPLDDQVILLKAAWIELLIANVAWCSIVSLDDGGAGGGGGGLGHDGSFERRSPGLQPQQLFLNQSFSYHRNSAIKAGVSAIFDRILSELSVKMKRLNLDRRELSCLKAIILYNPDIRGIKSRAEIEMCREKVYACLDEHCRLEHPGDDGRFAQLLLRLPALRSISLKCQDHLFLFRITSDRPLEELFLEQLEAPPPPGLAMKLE

NHR-25 (C. elegans) [2] = target: T3, NHR-25 (C. elegans) (UniProt Q19345); experiment: two-hybrid; yeast two-hybrid; no further details
T3 sequence: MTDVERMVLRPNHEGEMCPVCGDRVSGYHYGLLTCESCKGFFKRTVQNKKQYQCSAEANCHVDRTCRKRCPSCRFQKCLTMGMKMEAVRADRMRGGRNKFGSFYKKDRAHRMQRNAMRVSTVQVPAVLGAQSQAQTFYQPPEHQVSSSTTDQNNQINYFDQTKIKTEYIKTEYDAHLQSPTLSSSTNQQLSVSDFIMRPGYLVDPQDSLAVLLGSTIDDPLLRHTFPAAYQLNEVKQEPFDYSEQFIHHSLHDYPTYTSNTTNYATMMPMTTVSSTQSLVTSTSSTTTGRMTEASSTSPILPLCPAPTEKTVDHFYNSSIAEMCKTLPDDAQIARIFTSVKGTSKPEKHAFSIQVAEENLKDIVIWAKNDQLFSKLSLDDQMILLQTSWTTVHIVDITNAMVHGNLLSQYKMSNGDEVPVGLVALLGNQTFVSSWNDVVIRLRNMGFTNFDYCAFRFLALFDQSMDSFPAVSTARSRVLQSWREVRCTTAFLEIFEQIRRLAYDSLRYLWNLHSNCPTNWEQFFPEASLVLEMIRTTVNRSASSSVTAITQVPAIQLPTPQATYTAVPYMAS

NHR-25 (C. elegans) [3] = target: T3, NHR-25 (C. elegans); experiment: co-IP; co-immunoprecipitation, named together with cell transfection techniques; no further details
NHR-25 (C. elegans) [4] = target: T3, NHR-25 (C. elegans); experiment: pull-down; GST pulldown; which partner carried GST is not told
[5] = target: T1, ecdysteroid receptor (EcR); experiment: co-IP; co-immunoprecipitation of EcR and Usp with transport proteins in vertebrate cell lines that do not contain endogenous EcR and Usp; EcR and Usp expressed alone or together; remark: listed apart in the source
MHR3 (Manduca sexta) = target: T4, MHR3 (Manduca sexta) (UniProt Q08882); experiment: two-hybrid; BacterioMatch II two-hybrid assay
T4 sequence: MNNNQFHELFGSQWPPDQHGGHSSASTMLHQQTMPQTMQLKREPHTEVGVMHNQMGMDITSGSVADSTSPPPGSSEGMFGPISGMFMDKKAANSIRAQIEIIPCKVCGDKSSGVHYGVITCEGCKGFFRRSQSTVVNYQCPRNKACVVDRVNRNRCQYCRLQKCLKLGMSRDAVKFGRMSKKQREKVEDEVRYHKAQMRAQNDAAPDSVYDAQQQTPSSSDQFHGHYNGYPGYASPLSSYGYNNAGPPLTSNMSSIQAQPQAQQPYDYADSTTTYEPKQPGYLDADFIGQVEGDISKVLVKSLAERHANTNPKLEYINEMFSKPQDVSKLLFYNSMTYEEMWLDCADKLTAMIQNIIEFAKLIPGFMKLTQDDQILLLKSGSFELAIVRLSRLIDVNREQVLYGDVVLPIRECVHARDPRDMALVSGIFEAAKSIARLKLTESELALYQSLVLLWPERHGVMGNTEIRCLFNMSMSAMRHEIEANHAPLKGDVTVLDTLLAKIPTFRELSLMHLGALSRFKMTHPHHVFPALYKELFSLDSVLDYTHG

binding [1]: binds
binding (Ultraspiracle (Usp)): no binding
Molecule: exportin-1 / CRM1 (from UniProt O14980 1-1071)

binding (NHR-25 (C. elegans) [2]): binds
binding (NHR-25 (C. elegans) [3]): binds
binding (NHR-25 (C. elegans) [4]): binds
B1: WRM-1 (protein, UniProt Q10953 1-796)
chain: MDVDCAETFSQPCTPLNFNPMTPSTSRVSTPVRPSSTMSARQYSGSPFKAQPQNMEPSNSRVQELREAAVGKRSYTNAWMQGTYAPPQMAGQQQRFSRPPSVIGSTMSHMTNMSEMTAYSYGGLSMLSVNTEMGEFNNFVNQAPYQRALTRVSQVSENQDPTNRQYPMTAPEIIENLESTELINQAAAIRALEPIVKAGGMLQTWGPKGAEPIIRALFQVLIPRPVENENVIRKAFEILHHSILLSNKEIRRIDRMFFRLNAALMDPNGPPVFNVPKPYSIYEIVMTRAIQLDTKFESSAMVLLVHLCCKPHFMKIFFGEDETQQSPAHRRLHKIVIEFAIGNLRRPETKSKNKGLCVSIIKNLSNKNATIKDMSERLGVVSLFHQIMQNEVIHEDLLWSTMQALTVFCGDVKNGTHFVQMGGAQVLCGLLSHGSTRLLHELLKCLRRVSDLPAIQEQDMKESIHCIVQLIGCSDVTIVELATGTLRNIGLHNKMNKAFMVQDGVTSHAIAVLRTSEQFTYQPHANIDLYRKQILSIYENCLSVLNNVTSMAPQDIKESAVSACRMISENADSAYVLLHYFNVGNRKCRKLAVTVMKRVIETVPAFADPFVDLLGTTNEPLPILLLQRAFQSLDEWRKTSVEMMNCDGRSAEQRRELDDRRKDHEDIVKRSVGLLTNLCSQANPRFFHSLKLVLTNGTLNPFQWLTHEMSDGILQEWLAFILSICSRDESLQTFMMYRFLEQAKMTEAFFAELKARRQNSNIQTMLSKIIDLGRHQQRIVSQQHQQHQMQHHRQLM

binding (NHR-25 (C. elegans) [2]): binds
binding (NHR-25 (C. elegans) [3]): binds
binding (NHR-25 (C. elegans) [4]): binds
B2: SYS-1 (protein, UniProt Q9XVI2 1-811)
chain: MHSTGEPQRGPAGPYHHPMPYHVDQIPTTSHPSWHQAPHPGLPTPPYHPQQHPNYISMQPPPSQQQQMTPQALSTQQQQQVQQQQQRQLYSSPSPSRGPAAPAQNQKFRTEQWINNQAWPYSQSPAPPVAPSVMSYHQGDDRMSMLSVNTTMTNQFPDSQRCYSSNGSTCENVNPEMMQMNITQAAEQAIRLWFNTPDPMQRLHMAKTIRTWIRQDKFAQVDQANMPNCVQQILNIIYDGLKPQPVQLPISYYAQLWYNLLDILRRFTFLPIISPYIHQVVQMFCPRENGPQDFRELICNLISLNWQKDPHMKHCANQVFQIFNCIIMGVKNEKLRTEFAQHLKFEKLVGTLSEYFNPQVHPGMINPAIFIIFRFIISKDTRLKDYFIWNNNPHDQPPPPTGLIIKLNAVMIGSYRLIAGQNPETLPQNPELAHLIQVIIRTFDLLGLLLHDSDAIDGFVRSDGVGAITTVVQYPNNDLIRAGCKLLLQVSDAKALAKTPLENILPFLLRLIEIHPDDEVIYSGTGFLSNVVAHKQHVKDIAIRSNAIFLLHTIISKYPRLDELTDAPKRNRVCEIICNCLRTLNNFLMMWIPTPNGETKTAGPNEKQQVCKFIEIDILKKLMSCLSCEGMDTPGLLELRSTILRSFILLLRTPFVPKDGVLNVIDENRKENLIGHICAAYSWVFRQPNNTRTQSTKQQLVERTISLLLVLMEQCGAEKEVAQYSYSIDCPLNLLNGNQVKPTFIHNVLVVCDKILEHCPTRADIWTIDRPMLEGLTNHRNSDIAKAANSLLSRFPENDLLAGIFSNREYF

binding [5]: binds
B3: Ultraspiracle (Usp) (receptor, UniProt P20153 1-508)
chain: T2 sequence

binding (MHR3 (Manduca sexta)): binds
B4: E75B (receptor, UniProt Q08893-2 1-685)
chain: MVRAMSCGAELRERHSVLVSMLEARRESSDSGCSSDDGSDVERDCKCRCDPQGFFRRSIQQKIQYRPCTKNQQCSILRINRNRCQYCRLKKCIAVGMSRDAVRFGRVPKREKARILAAMQQSSTSRAHEQAAAAELDDAPRLLARVVRAHLDTCEFTRDRVAAMRARARDCPTYSQPTLACPLNPAPELQSEKEFSQRFAHVIRGVIDFAGLIPGFQLLTQDDKFTLLKSGLFDALFVRLICMFDAPLNSIICLNGQLMKRDSIQSGANARFLVDSTFKFAERMNSMNLTDAEIGLFCAIVLITPDRPGLRNVELVERMHTRLKACLQTVIAQNRPDRPGFLRELMDTLPDLRTLSTLHTEKLVVFRTEHKELLRQQMWSEEEAVSWVDSGADELARSPIGSVSSSESGEAVGDCGTPLLAATLAGRRRLDSRGSVDEEALGVAHLAHNGLTVTPVRQPPRYRKLDSPTDSGIESGNEKHERIVGTGSGCSSPRSSLEEHNEDRRPPVSADDMPVLKRVLQAPPLYGGTPSLMDEAYRRHKKFRALRRDTGEAEARTVRPTPSPQPQHPHPANPAHPAHSPRPQRASLSSTHSVLAKSLMEGPRMTPEQLKRTDIIQQYMRRGESSAPAEGCPLRAGGLLTCYRGASPAPQPVLALQVDVTDAPLNLSKKSPSPPRTYMPQMLEA

— article PMC2999422
